# From paper PMC4191393, “Selective microRNA uridylation by Zcchc6 (TUT7) and Zcchc11 (TUT4)”
# The comparison behind a weaker result is the experiment's own reference, which may not be listed here. Protein sequences can lack the tags named with them.
# Target: T1, r.Zcchc11 (TUT4) (Homo sapiens) (UniProt Q5TAX3)
# T1 sequence (looked up): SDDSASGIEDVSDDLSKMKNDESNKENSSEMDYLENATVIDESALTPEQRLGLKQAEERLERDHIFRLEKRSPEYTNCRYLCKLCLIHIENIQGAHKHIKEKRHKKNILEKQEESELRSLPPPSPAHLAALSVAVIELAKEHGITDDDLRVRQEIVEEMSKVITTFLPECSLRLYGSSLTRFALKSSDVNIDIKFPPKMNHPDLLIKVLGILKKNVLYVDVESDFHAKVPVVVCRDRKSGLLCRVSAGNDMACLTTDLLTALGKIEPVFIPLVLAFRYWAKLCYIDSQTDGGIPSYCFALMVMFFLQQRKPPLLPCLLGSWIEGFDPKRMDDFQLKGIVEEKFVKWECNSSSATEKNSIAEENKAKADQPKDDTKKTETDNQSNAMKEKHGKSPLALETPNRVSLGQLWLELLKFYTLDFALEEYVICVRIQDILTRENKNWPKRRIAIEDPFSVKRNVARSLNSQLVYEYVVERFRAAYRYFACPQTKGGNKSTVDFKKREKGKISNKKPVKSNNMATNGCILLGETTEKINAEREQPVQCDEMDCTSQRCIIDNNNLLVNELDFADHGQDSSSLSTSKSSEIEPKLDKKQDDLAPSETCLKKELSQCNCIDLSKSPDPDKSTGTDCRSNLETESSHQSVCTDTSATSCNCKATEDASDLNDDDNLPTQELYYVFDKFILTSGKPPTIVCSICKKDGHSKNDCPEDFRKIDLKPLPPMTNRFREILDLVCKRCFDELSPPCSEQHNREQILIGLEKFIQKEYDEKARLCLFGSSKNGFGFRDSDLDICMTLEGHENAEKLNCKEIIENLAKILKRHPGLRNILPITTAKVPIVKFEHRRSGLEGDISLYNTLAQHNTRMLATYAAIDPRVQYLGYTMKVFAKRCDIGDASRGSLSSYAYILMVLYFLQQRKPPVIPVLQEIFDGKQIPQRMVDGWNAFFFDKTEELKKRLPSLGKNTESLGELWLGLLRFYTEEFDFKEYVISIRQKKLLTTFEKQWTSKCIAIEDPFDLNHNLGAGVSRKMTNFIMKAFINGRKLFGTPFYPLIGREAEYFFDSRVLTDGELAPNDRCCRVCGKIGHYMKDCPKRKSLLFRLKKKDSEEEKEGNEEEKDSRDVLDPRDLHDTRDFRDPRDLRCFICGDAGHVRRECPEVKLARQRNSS
# Test: EMSA
# Conditions: 2 mM Mg2+, RNA 2.5 nM; EMSA: 500 mM NaCl, 20 mM HEPES pH 7.5, 2 mM MgCl2, 5% glycerol, 1 mM TCEP; 10 ul, 3-50 ng protein, 2.5 nM RNA; native 12% PAGE in 0.5x TBE; temperature not stated; recombinant protein; residues 225-1384; protein details: N-terminal His6-Trx, removed with TEV; label: 5'-32P
sequence,measurement,value
CUGUACAGGCCACUGCCUUGC [let-7g passenger],binding result,binds more weakly
